PubChem BioAssay AID1671190 (National Center for Advancing Translational Sciences (NCATS), 2021)
The campaign covered roughly 580,000 compounds. About 6,100 (1.1%) were called active. The shares of active, inactive and inconclusive entries below differ from those in the screen. Calls come from the whole dose curve; as a rule, active = well fitted inhibition curve with a large enough effect; inconclusive = small, poorly fitted or top-dose-only effect, or another doubt; inactive = no such curve, though single readings can be large or run the other way. A potency beside an inconclusive call is a rough fit, not a confirmed value.

By UniProt entry, the sequences of proteins in these tests, tags left out. Where a name states a change or a piece, a line headed by the entry shows the natural chain unless it says otherwise.
UniProt P18054: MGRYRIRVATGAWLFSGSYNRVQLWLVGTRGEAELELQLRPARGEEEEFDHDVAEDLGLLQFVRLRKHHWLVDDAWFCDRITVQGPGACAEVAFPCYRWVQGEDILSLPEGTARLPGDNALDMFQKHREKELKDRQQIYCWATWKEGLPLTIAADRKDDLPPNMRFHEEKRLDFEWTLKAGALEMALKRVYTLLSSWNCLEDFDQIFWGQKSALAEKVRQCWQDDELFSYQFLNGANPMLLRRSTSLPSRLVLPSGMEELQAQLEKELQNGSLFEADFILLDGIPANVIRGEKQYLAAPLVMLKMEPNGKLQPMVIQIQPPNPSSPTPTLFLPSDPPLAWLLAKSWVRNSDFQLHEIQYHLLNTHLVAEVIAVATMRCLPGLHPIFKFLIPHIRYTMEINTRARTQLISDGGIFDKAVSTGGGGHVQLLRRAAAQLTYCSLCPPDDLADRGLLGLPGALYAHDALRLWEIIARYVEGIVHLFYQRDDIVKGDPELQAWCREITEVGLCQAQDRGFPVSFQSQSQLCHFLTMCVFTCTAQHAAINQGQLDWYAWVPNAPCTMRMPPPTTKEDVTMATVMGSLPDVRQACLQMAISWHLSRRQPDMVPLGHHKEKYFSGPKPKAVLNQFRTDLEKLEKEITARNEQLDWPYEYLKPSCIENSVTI

target: Polyunsaturated fatty acid lipoxygenase ALOX12 (Homo sapiens) (UniProt P18054); assay: Primary qHTS assay for inhibitors of human arachidonate 12S-lipoxygenase (ALOX12): Round 2; conditions: purified 12hLO, xylenol orange hydroperoxide absorbance; series mostly up to 108 µM
In short: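 Hydroperoxide product was detected by ferrous iron/xylenol orange as the 573 to 405 nm absorbance ratio. Arachidonic acid at 40 uM (final) was turned over for 30 min at room temperature by 150 nM human 12hLO, pH 7.0 Hepes buffer, after 15 min compound preincubation.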
Potency is the fitted concentration of half-maximal effect.

Which Potency does the source give for `CCCSc1nsc(NC(=O)CC)n1` here?
Its Potency is inconclusive: 112 µM [inhibitor, single point].

`COc1ccc(CNc2ncnc3c2CN(c2ccccc2C)C(=O)CN3C)cc1` was tested. Which Potency did it give?
Its Potency is inconclusive: 70.8 µM [inhibitor, partial curve, poor fit].

How did the Potency turn out when `Clc1ccc(-c2nnc(CSc3nnc4ccccn34)o2)cc1` was run?
Its Potency is “inactive”.

Which Potency does the source give for `COC(=O)c1c(C)noc1-c1ccc(Cl)cc1` here?
The Potency was inconclusive: 100 µM [inhibitor, single point].

With `O=C(Nc1nc(-c2ccc3ccccc3c2)cs1)c1cc[n+]([O-])cc1` as the compound, how does the Potency read?
Its Potency is inconclusive: 79.4 µM [inhibitor, single point].

How did the Potency turn out when `O=C(C1=C[C@H](c2ccc(C(F)(F)F)cc2)C[C@H](OCc2ccc(CO)cc2)O1)N1CCN(Cc2ccc3c(c2)OCO3)CC1` was run?
Its Potency is inconclusive: 0.447 µM [inhibitor, full curve, poor fit].

`O=C(CN(CC(=O)NCc1ccccc1)CC(=O)NCc1ccccc1)NCc1ccccc1` was tested. Which Potency did it give?
The Potency was inconclusive: 6.31 µM [inhibitor, partial curve, poor fit].

`COc1ccc(OC)c2[nH]c(=O)c(CCNS(=O)(=O)c3ccccc3)cc12` was tested. Which Potency did it give?
The Potency was “inactive”.

With `CCC1S/C(=N/N=C/c2cccs2)NC1=O` (centres undefined) as the compound, how does the Potency read?
The Potency was “inactive”.

Which Potency does the source give for `COc1ccc(COC(=O)c2cc([N+](=O)[O-])ccc2N2CCOCC2)cc1F` here?
The Potency was “inactive”.

How did the Potency turn out when `Cc1ccc(-n2c(=S)sc3c(=O)n(-c4ccccc4F)c(SCC(=O)O)nc32)cc1C` was run?
The Potency was inconclusive: 44.7 µM [inhibitor, partial curve].

How did the Potency turn out when `O=C(Nc1ccc2oc(-c3ccncc3)nc2c1)c1ccc(Cl)cc1` was run?
Its Potency is “inactive”.

For `COC(=O)CCN1CCSCCS1(=O)=O`, which Potency is on record?
Its Potency is inconclusive: 7.94 µM [inhibitor, full curve, poor fit].

How did the Potency turn out when `O=c1[nH]nc(SCc2nc(-c3ccccc3Cl)no2)n2nc(-c3ccco3)cc12` was run?
Its Potency is inconclusive: 39.8 µM [inhibitor, partial curve, poor fit].

For `Nc1nnn(CC(=O)N/N=C/c2cccc(Cl)c2)n1`, which Potency is on record?
The Potency was inconclusive: 100 µM [inhibitor, partial curve, poor fit].

`O=C(CN1Cc2nc(Nc3ccc(C(F)(F)F)cc3)ccc2OCC1=O)N1CCCC1` was tested. Which Potency did it give?
Its Potency is “inactive”.

`CN1CCN(C(=O)c2cnn(-c3ccccc3)c2NC(=O)c2ccc(Br)cc2)CC1` was tested. Which Potency did it give?
The Potency was inconclusive: 2.51 µM [inhibitor, full curve, poor fit].

For `O=C(/C=C/c1ccc2ccccc2c1)c1ccccc1`, which Potency is on record?
The Potency was inconclusive: 28.2 µM [inhibitor, partial curve, poor fit].

`CCc1nc(-c2c3n(c(=O)n(Cc4ccc(C)cc4)c2=O)CCCC3)no1` was tested. Which Potency did it give?
Its Potency is inconclusive: 25.1 µM [inhibitor, partial curve].
